From paper PMC2770259 come the findings set out here.

The chains behind the UniProt entries cited, without tags or fusion partners.
UniProt Q9UT79: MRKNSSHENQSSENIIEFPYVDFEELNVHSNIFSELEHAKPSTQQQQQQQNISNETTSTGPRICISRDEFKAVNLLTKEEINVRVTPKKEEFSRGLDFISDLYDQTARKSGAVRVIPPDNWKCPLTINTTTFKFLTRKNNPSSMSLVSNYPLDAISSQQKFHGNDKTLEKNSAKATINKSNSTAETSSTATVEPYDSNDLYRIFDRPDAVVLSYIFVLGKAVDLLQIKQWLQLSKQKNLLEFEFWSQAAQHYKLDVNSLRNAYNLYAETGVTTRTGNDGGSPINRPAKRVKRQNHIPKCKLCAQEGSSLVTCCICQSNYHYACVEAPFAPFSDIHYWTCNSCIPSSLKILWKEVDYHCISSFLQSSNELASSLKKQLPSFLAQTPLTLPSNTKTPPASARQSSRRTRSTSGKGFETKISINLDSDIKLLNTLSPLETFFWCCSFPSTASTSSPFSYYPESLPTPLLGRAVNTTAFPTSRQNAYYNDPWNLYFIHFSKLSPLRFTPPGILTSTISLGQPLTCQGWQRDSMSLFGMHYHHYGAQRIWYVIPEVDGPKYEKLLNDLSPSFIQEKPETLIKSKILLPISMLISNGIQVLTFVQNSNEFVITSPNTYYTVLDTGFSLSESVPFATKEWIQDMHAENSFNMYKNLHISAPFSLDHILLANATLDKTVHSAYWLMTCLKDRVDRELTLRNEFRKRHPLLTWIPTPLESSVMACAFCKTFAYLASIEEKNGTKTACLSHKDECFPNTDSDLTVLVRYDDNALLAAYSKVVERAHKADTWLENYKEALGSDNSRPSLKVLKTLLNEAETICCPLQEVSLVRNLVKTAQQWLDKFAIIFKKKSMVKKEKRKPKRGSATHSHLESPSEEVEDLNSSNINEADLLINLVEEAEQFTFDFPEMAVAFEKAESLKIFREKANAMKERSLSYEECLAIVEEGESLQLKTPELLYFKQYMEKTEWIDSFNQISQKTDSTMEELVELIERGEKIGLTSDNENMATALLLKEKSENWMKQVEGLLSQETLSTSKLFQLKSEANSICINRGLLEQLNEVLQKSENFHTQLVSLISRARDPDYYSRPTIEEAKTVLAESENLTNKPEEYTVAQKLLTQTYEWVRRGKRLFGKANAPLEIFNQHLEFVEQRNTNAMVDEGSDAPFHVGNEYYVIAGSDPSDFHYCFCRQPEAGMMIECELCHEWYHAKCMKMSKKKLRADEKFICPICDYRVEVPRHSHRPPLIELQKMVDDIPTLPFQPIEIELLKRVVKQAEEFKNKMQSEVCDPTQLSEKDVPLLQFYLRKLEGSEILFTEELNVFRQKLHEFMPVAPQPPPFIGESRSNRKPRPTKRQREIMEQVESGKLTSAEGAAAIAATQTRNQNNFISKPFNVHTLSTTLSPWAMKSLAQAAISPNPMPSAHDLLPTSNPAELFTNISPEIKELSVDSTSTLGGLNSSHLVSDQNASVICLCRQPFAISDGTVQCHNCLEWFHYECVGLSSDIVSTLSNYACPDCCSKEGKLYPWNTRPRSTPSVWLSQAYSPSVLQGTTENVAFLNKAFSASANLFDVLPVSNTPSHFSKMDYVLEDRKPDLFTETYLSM

Holding throughout (assay): affinity purification with mass spectrometry; TAP-tag purification from S. pombe strains with TAP-tagged baits (Yaf9, Swc4, Swc2, Msc1, Swr1, H2A.Z/Pht1), LC-MS/MS and Coomassie stained PAGE gels; H2A.Z-TAP also in msc1Δ and swr1Δ strains; protocol in ref. 47
One test has as its target T1, Yaf9 (S. pombe) (UniProt Q10319).
T1 sequence: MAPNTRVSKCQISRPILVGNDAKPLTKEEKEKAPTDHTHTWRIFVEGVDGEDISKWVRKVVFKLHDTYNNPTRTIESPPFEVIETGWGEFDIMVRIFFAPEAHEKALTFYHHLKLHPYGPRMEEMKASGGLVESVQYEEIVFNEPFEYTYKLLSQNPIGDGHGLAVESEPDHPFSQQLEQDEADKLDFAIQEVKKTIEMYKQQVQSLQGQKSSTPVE

Another test concerns the target T2, Swc4 (S. pombe) (UniProt O14308).
T2 sequence: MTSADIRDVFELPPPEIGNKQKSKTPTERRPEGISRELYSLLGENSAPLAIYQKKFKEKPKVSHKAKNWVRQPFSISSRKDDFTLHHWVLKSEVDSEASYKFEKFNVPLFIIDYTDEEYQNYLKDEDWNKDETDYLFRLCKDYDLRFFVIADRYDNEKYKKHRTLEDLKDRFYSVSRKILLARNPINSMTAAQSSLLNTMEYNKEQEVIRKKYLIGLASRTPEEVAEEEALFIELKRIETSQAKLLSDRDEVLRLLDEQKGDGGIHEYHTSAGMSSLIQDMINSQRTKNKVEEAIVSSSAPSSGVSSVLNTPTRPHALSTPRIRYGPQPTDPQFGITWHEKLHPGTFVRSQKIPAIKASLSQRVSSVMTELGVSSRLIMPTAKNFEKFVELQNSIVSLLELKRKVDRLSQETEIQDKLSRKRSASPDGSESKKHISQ

In test [1] the target is Msc1 (JmjC-domain protein of the Lid/Jarid1 family) (S. pombe) (UniProt Q9UT79).
The next test deals with T3, Swc2 (S. pombe) (UniProt Q9P790).
T3 sequence: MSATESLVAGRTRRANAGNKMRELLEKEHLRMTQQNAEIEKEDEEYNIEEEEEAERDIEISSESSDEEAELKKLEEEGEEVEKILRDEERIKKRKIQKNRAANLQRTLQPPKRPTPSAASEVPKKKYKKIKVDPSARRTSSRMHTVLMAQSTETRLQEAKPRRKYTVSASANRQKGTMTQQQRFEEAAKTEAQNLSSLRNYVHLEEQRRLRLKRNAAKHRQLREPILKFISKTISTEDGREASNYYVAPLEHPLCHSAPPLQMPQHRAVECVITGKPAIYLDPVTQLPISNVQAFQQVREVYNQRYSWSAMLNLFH

Results are given in words; binding and its absence hold for the method and conditions named. Binding seen in cells or lysates may run through a third protein. These calls come from enrichment with a bait or labelling near it, and not all partners need be listed.

B1: Swr1 (catalytic subunit of the Swr1 complex) (protein, UniProt O13682 1-1288)
chain: MTYEESEKNKNGLSSYIKKEGSSDLKVRVRFREPKLLVTHSGHITEQPKYEHLEQYLDSYVSLEDGDHDPKEAKELVFREVQLRHRINEFRKKGYFTAEAPVELKKAPSSNNIPISYRDNLLSHVNGYARSMHNDRKVRASRSRRISGMILAHFKRLSGADEKKAKEEDKRIRLLAKRTAWEIRKKWKVIEREVRRRRAERAAEAQRVAGKEQLANILKHSTDLLEARIERANINISAQTSESAVDWNYLLKTSDDLLSVDELKLKYSNPDLIKNIEREEEAEETSDDEPLSSEDEENEDEDITEESNLRKRKVSDKTRVVNKHPPSLRRSRRFFAKKSYNHVSDLDGEVIVMKKEDITDGVSTKKDLNDGDQNEVPLHDTGSSSSLSLLYNEDVASKKKRRVNDDGLARKKSIAGISEQRKFDEPNGSPVLHANKIQVPFLFRGTLREYQQYGLEWLTALHDSNTNGILADEMGLGKTIQTIALLAHLACEKENWGPHLIIVPTSVMLNWEMEFKKFLPGFKILTYYGNPQERKEKRSGWYKPDTWHVCITSYQLVLQDHQPFRRKKWQYMILDEAHNIKNFRSQRWQSLLNFNAEHRLLLTGTPLQNNLVELWSLLYFLMPAGVTQNNSAFANLKDFQDWFSKPMDRLIEEGQDMNPEAMNTVAKLHRVLRPYLLRRLKTEVEKQMPAKYEHVVYCQLSKRQRFLYDDFINRARTREILASGNFMSIINCLMQLRKVCNHPNLHEERPIVTSFALRRSAIADLEIKDLLVRKRLLHEEPMTKLDLSTLRLIRTDSEAFDTFVSDELNSLCATNAYNRISTFLRMQIDEECKPCQFKKSNFKEHFQNKIYQEQLDKLNFQKYLNESKCSHSPIYGSNLIRLAEKLPKHSTSIDYTLYAKDDPLYLLNTTKALRSCILSTEERASNMKEIIQRFACITPKAVVVDLPELFCKTIPRDLLYEVSRKINPLHQASTRLAIAFPDKRLLQYDCGKLQVLDRLLKDLVSNGHRVLIFTQMTKVLDILEQFLNIHGHRYLRLDGATKIEQRQILTERFNNDDKIPVFILSTRSGGLGINLTGADTVIFYDSDWNPQLDAQAQDRSHRIGQTRDVHIYRLISEYTVESNMLRRANQKRMLDKIVIQGGEFTTEWFRKADVLDLFDLDDESLKKVKADSDSGSTKNEENWEVALAAAEDEEDVQAAQVARKESALEQTEFSETSTPQAMLTKDSTPLSSDSATPGFERDSTEEQSNTNDMDEDRSELEEDLDETVGHIDEYMISFLEQEGTSDEW
Consider B1, for which the binding result (with Yaf9 (S. pombe); in the test with Swc4 (S. pombe); in test [1]; in the test with Swc2 (S. pombe)) was “binds” throughout.

B2: Swc5 (protein, UniProt O74897 1-215)
chain: MTEKLIDFGLEQEEEDTEFVPGDSTDTESSFSDADSSEEEFVEEKEASQVQSTKSKIATSESEDVTLKNIAKKNKRERNDKLIPQQSNESEAIEKPVQSTTEVELKTNELAESNSSVAVEGDENSYAETPKKKHSLIRKRRKSPLDSSSAQKVLKKNKLNTLEQAQQNWSKYIKEQDIQDELRIANKDGYVERQEFLAKTRAAHEEKIREMKKLP
B2: the binding entry in test [1] was “binds”.

B3: Yaf9 (protein, UniProt Q10319 1-217)
chain: T1 sequence
On to B3, for which the binding entry (with Swc4 (S. pombe); in test [1]; with Swc2 (S. pombe)) was “binds” each time.

B4: Swc2 (protein, UniProt Q9P790 1-316)
chain: T3 sequence
Consider B4, for which the binding entry (with Yaf9 (S. pombe); with Swc4 (S. pombe); in test [1]) was “binds” in each case.

B5: Swc4 (protein, UniProt O14308 1-437)
chain: T2 sequence
As for B5, the binding entry (with Yaf9 (S. pombe); in test [1]; with Swc2 (S. pombe)) was “binds” throughout.
